The campaign covered roughly 300,000 compounds. About 5,400 (1.8%) were called active. The inconclusive results got no clear call from the source; some entries with a clear call stand among them for comparison. The call rests on the fitted dose curve; tested in HEK293 cells. Where the call is inconclusive, the potency comes from a doubtful curve fit.
Test: qHTS for inhibitors of binding or entry into cells for Marburg Virus
Conditions: Marburg virus pseudotyped entry inhibition, cell reporter; activity change, negative = inhibition: at 37.8 µM (top of the series) unless noted
On the % scale 0 is the no-effect control and ±100 the full control effect; potency means the concentration at half of the fitted maximal effect.

SMILES	Potency	activity change, negative = inhibition
COc1cccc(NC(=O)c2csc3c2CCCCC3)c1	inconclusive: 3.16 µM [activator, single point]	
CCN(CC)S(=O)(=O)c1ccc(C(=O)NCc2ccc3c(c2)OCO3)cc1	inconclusive: 20 µM [activator, single point]	
Cc1cccc(NC(=O)NCc2ccccn2)c1		inactive: 11.4%
Cc1ccc(NC(=O)C2=C(c3ccccc3)S(=O)(=O)CCS2(=O)=O)cc1	inconclusive: 3.98 µM [inhibitor, partial curve, poor fit]	
COCCn1c(SCC(=O)N2CCCC2)nnc1-c1ccco1		inactive: 7.42% [at 46.1 µM]
Cc1ccc2nc(NC(=O)C3CCCN(S(=O)(=O)c4cccc5nsnc45)C3)sc2c1 (stereo not drawn)	inconclusive: 20 µM [inhibitor, partial curve]	
COc1ccc(C2CC(=O)c3cnc(NC(=O)c4ccco4)nc3C2)cc1 (stereo not drawn)		inactive: 16.3%
O=C(c1ccco1)N1CCN(C(=S)Nc2ccccc2C(F)(F)F)CC1	inconclusive: 17.8 µM [inhibitor, single point]	
CCCn1nnc(NC(=S)NC(=O)Cc2ccccc2)n1		inactive: -3.39% [at 46.1 µM]
O=C(CSc1nc(-c2ccccc2)cc(C(F)(F)F)n1)NCc1cccs1	inconclusive: 0.224 µM [activator, single point]	
O=C(Nc1ccc(S(=O)(=O)Nc2ccccn2)cc1)c1ccc(Cl)cc1Cl		inactive: -15%
CC(C)(C)Nc1nc(Cl)nc(NC(C)(C)C)n1	inconclusive: 32.6 µM [activator, single point]	
CCC(CC)NC(=O)c1cccc([N+](=O)[O-])c1C		inactive: -7.82%
CC(C)Oc1cccc(C(=O)C2CCCN(Cc3ccc(Oc4ncccn4)cc3)C2)c1 (stereo not drawn)	inconclusive: 22.4 µM [inhibitor, single point]	
CC(=O)Oc1ccccc1N(C(C)=O)S(=O)(=O)c1ccc2ccccc2c1	inconclusive: 35.5 µM [activator, single point]	
O=S(=O)(c1ccc(Cl)c(NC(=S)Nc2cccc(O)c2)c1)N1CCOCC1		inactive: 17.4%
CC1CN(C(=S)SCCN2Cc3ccccc3C2=O)CC(C)O1 (stereo not drawn)		inconclusive: 0.929% [activator]
O=C(CS(=O)(=O)c1nc(-c2ccc(Cl)cc2)cn1-c1ccccc1)Nc1cccc(Cl)c1	inconclusive: 3.16 µM [activator, single point]	
CCOc1ccc(-n2c(SCC(=O)Nc3ccc(Br)cc3)nc3n[nH]c(C)c3c2=N)cc1	inconclusive: 35.5 µM [inhibitor, single point]	
COCCn1c(CCC(=O)Nc2ccc(OC)c(OC)c2)nc2cccnc21		inactive: 9.41% [at 46.1 µM]
C=CCOc1ccc(/C(CC)=N/O)c(OC)c1		inactive: -12.5%
O=C(Cn1c(=O)sc2ccccc21)Nc1ccccc1C(=O)O	inconclusive: 22.4 µM [inhibitor, partial curve, poor fit]	
O=C(Cn1nnc(-c2ccccc2Cl)n1)NCc1ccc2c(c1)OCO2	inconclusive: 0.199 µM [activator, full curve, poor fit]	

SMILES	Potency	activity change, negative = inhibition
CN(C1CCS(=O)(=O)C1)S(=O)(=O)c1ccccc1[N+](=O)[O-] (stereo not drawn)	inconclusive: 35.5 µM [activator, single point]	
COc1ccccc1/C=N/NC(=O)c1cc2c(ccc3ccccc32)o1	inconclusive: 3.55 µM [inhibitor, partial curve, poor fit]	
CCOCCCN1CN(Cc2ccco2)CNC1=S	inconclusive: 11.2 µM [activator, partial curve]	
O=C1C(=O)N(Cc2cccc([N+](=O)[O-])c2)c2ccccc21	active: 11.2 µM	
Cc1nn(Cc2ccccc2)c(C)c1NC(=O)CCCn1nc([N+](=O)[O-])c(Cl)c1C		inactive: 9.23%
CC1(C)CC(=O)C2=C(C1)Oc1ncn(CCCn3ccnc3)c(=N)c1C2c1ccccc1 (stereo not drawn)	inconclusive: 29.1 µM [inhibitor, single point]	
COc1ccc(-c2nnc(Nc3nc4c(OC)cccc4s3)o2)c(OC)c1	inconclusive: 16.4 µM [inhibitor, partial curve, poor fit]	
O=[N+]([O-])c1cc2nc(O)c(O)nc2cc1[N+](=O)[O-]	inconclusive: 20.6 µM [activator, single point]	
CN1CCN(c2ccc(C(F)(F)F)cc2NC(=O)c2ccco2)CC1	active: 10 µM	
CC(=O)Nn1c(COc2ccccc2C)nc2ccccc2c1=O	inconclusive: 5.62 µM [inhibitor, single point]	
CC1CCC(=NNc2ccc(C(F)(F)F)cc2[N+](=O)[O-])CC1 (stereo not drawn)		inactive: 1.44%
N#Cc1ccccc1NC(=O)Nc1ccc(Cl)cc1	inconclusive: 35.5 µM [activator, partial curve, poor fit]	
O=C(NCc1ccc(Cl)cc1)C(=O)NCC1CCCN1S(=O)(=O)c1cccs1 (stereo not drawn)	inconclusive: 28.2 µM [activator, partial curve, poor fit]	
COc1ccc([N+](=O)[O-])cc1NC(=O)CCSCCc1ccccn1	inconclusive: 0.562 µM [inhibitor, full curve, poor fit]	
COc1ccccc1/C=C/C=N/n1c(-c2ccco2)n[nH]c1=S	inconclusive: 10 µM [inhibitor, partial curve, poor fit]	
Cc1cc(N2CCCC2)nc2ccc(NC(=S)NCCCN3CCC(C)CC3)cc12	inconclusive: 5.01 µM [inhibitor, full curve, poor fit]	
COc1ccccc1OCCNC(=O)c1ccco1		inactive: 29.2% [at 46.1 µM]
Cc1cc(NC(=O)CSc2nc3c(cc2C#N)CCCC3)no1	inconclusive: 15.8 µM [inhibitor, single point]	
COc1ccc(OC)c(C2=NOC(C(=O)NCc3cccnc3)C2)c1 (stereo not drawn)	inconclusive: 20 µM [inhibitor, single point]	
COC(=O)c1sc(NC(=O)Cc2cccs2)nc1C		inactive: 28.4%
CCN(c1cccc(C)c1)S(=O)(=O)c1cc2c3c(c1)CCC(=O)N3CCC2	inconclusive: 5.62 µM [inhibitor, full curve]	
Cc1sc(NC(=O)C2c3ccccc3Oc3ccccc32)c(C(=O)OC(C)C)c1C		inactive: 1.17% [at 46.1 µM]
CCc1nn2c(=O)c(S(=O)(=O)Nc3ccc(C)cc3C)c(C)nc2s1	inconclusive: 0.562 µM [inhibitor, full curve, poor fit]	

SMILES	Potency	activity change, negative = inhibition
COc1ccc(NC(=O)Nc2nnc(C(C)C)s2)cc1	inconclusive: 5.17 µM [activator, single point]	
C=CCNC(=S)Nc1sc2c(c1C(=O)OCC)CCN(C(=O)OCC)C2	inconclusive: 7.08 µM [inhibitor, partial curve, poor fit]	
COc1ccc(-c2nc(CSCC(=O)NCCc3ccc(OC)c(OC)c3)c(C)o2)cc1	inconclusive: 3.16 µM [inhibitor, single point]	
COc1ccccc1C(=O)Nc1ccc(N2CCN(Cc3ccccc3)CC2)cc1	inconclusive: 6.31 µM [inhibitor, single point]	
CCCCCn1c(SCCCC)nc2c1c(=O)[nH]c(=O)n2C	inconclusive: 29.1 µM [inhibitor, single point]	
O=S(=O)(c1cccc(-c2nc3n(n2)Cc2ccccc2-3)c1)N1CCCC1		inactive: 0.427%
Cc1ccc(/C=C/C(=O)NC2CCCCCCC2)o1		inactive: 6.77%
COC(=O)c1ccc2c(c1)nc(C)n2CCO	inconclusive: 31.6 µM [activator, single point]	
C=CCOC(=O)C1=C(C)Nc2nnnn2C1c1cccs1 (stereo not drawn)	inconclusive: 0.82 µM [inhibitor, partial curve, poor fit]	
CCOC(=O)C1(CC2CCCCO2)CCN(S(=O)(=O)c2cccc(F)c2)CC1 (stereo not drawn)	inconclusive: 3.98 µM [inhibitor, single point]	
COc1ccc(NC(=O)CS(=O)(=O)Cc2ccccc2)c([N+](=O)[O-])c1		inactive: 15.7%
Cc1ccc(NC(=O)c2cc(NC(=O)c3ccco3)ccc2N2CCOCC2)cc1Cl	inconclusive: 35.5 µM [inhibitor, single point]	
CC(=O)c1nn(-c2cccc(Br)c2)cc1C(=O)c1ccc(Br)cc1	inconclusive: 0.0231 µM [inhibitor, full curve, poor fit]	
CCc1c(C)nc(Nc2nc(C)c3cc(OC)ccc3n2)[nH]c1=O	inconclusive: 35.5 µM [inhibitor, single point]	
CCOc1ccccc1-c1nnc(SCC(=O)NC2CC2)n1CC	inconclusive: 0.112 µM [inhibitor, full curve, poor fit]	
O=C(Cn1cnc2ccccc2c1=O)c1ccc(OC(F)F)cc1	inconclusive: 35.5 µM [activator, partial curve, poor fit]	
CC(C)c1ccc(N(CC(=O)NCc2ccc(F)cc2)C(=O)c2snc(C(N)=O)c2N)cc1	inconclusive: 2 µM [inhibitor, full curve]	
CC(=O)/C(C)=N/O	inconclusive: 0.0891 µM [activator, full curve, poor fit]	
CCOC(=O)Cc1cc(=O)n2[nH]c(C)c(-c3ccc(Cl)cc3)c2n1	inconclusive: 29.1 µM [inhibitor, single point]	
O=C(Nc1cc(Cl)ccc1O)c1cc(-c2ccc3c(c2)OCO3)on1	inconclusive: 17.8 µM [activator, partial curve, poor fit]	
Cc1ccc(C)c(N(CC(=O)Nc2ccccc2C(=O)NCc2ccco2)S(=O)(=O)c2ccccc2)c1	inconclusive: 8.91 µM [inhibitor, partial curve, poor fit]	
O=C(NCC1CCCO1)C(c1cccs1)N(C(=O)c1ccc(CN2CCOCC2)o1)c1ccc(Cl)cc1 (stereo not drawn)	inconclusive: 0.501 µM [inhibitor, partial curve, poor fit]	

An excerpt from above in order of number of heavy atoms, high to low:
SMILES	Potency	activity change, negative = inhibition
Cc1ccc(C)c(N(CC(=O)Nc2ccccc2C(=O)NCc2ccco2)S(=O)(=O)c2ccccc2)c1	inconclusive: 8.91 µM [inhibitor, partial curve, poor fit]	
CCOC(=O)C1(CC2CCCCO2)CCN(S(=O)(=O)c2cccc(F)c2)CC1 (stereo not drawn)	inconclusive: 3.98 µM [inhibitor, single point]	
O=C(Nc1cc(Cl)ccc1O)c1cc(-c2ccc3c(c2)OCO3)on1	inconclusive: 17.8 µM [activator, partial curve, poor fit]	
